# Measurements taken from the supplement of paper PMC8728848.
# This is one part of the list.
# B1: B936 (Bifidobacterium sp) (protein)
# chain: MKNWKKAIALVASAAALVSVAACGPSNAGGSSDSGKKTVGFVAVGPEGGFRTANEKDIQKAFEDAGFDLTYSPTQNNDQQKQIQAFNKFVNDEVDAIILSSTEDSGWDDSLKKAAEAEIPVFTVDRNVDVKDAEAKKAIVAHIGPSNVWCGEQAAEFVNKNFPDGANGFILEGPAGLSVVKDRGTGWGNKVASNVKVLESQSANWSTDEAKTVTAGLLDKYKSDNPQFIFAQNDEMGLGAAQAVDAAGLKGKVKIITIDGTKNALQALVDGDLSYVIEYNPIFGKETAQAVKDYLDGKTVEKDIEIESKTFDAASAKEALDNNTRAY
# Columns and labels:
# Test in all cases: glycan array binding signal (z-score within array); higher = stronger binding
# Conditions in all cases: glycan notation: IUPAC condensed, linker removed
# [1] = molecular target: GlcNAc(b1-2)[GlcNAc(b1-4)]Man(a1-3)[GlcNAc(b1-4)][GlcNAc(b1-2)[GlcNAc(b1-6)]Man(a1-6)]Man(b1-4)GlcNAc(b1-4)GlcNAc
# How it was run: (§1)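 The Consortium for Functional Glycomics database supplied 3228 glycan arrays, of which those lacking an available protein sequence were dropped. The binding signal, a within-array Z-score, was averaged across arrays of the same protein sequence and across linkers. Negative scores can be read as non-binding.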
# [2] = molecular target: GlcNAc(b1-2)[GlcNAc(b1-4)]Man(a1-3)[GlcNAc(b1-4)][GlcNAc(b1-2)[GlcNAc(b1-6)]Man(a1-6)]Man(b1-4)GlcNAc(b1-4)[Fuc(a1-6)]GlcNAc
# How it was run: as §1
# [3] = molecular target: GlcNAc(b1-2)[GlcNAc(b1-6)]Man(a1-6)[GlcNAc(b1-2)Man(a1-3)]Man(b1-4)GlcNAc(b1-4)GlcNAc
# How it was run: as §1
# [4] = molecular target: GlcNAc(b1-2)[GlcNAc(b1-6)]Man(a1-6)[GlcNAc(b1-2)Man(a1-3)]Man(b1-4)GlcNAc(b1-4)[Fuc(a1-6)]GlcNAc
# How it was run: as §1
# [5] = molecular target: GlcNAc(b1-2)[GlcNAc(b1-6)]Man(a1-6)[GlcNAc(b1-4)][GlcNAc(b1-2)Man(a1-3)]Man(b1-4)GlcNAc(b1-4)GlcNAc
# How it was run: as §1
# GlcNAc(b1-3)Fuc = molecular target: GlcNAc(b1-3)Fuc
# How it was run: as §1
# GlcNAc(b1-3)Gal = molecular target: GlcNAc(b1-3)Gal
# How it was run: as §1
# [6] = molecular target: GlcNAc(b1-3)Gal(b1-3)GalNAc
# How it was run: as §1
# GlcNAc(b1-3)Gal(b1-4)Glc = molecular target: GlcNAc(b1-3)Gal(b1-4)Glc
# How it was run: as §1
# [7] = molecular target: GlcNAc(b1-3)Gal(b1-4)GlcNAc
# How it was run: as §1
# [8] = molecular target: GlcNAc(b1-3)Gal(b1-4)GlcNAc(b1-2)Man(a1-3)[GlcNAc(b1-3)Gal(b1-4)GlcNAc(b1-2)Man(a1-6)]Man(b1-4)GlcNAc(b1-4)GlcNAc
# How it was run: as §1
# [9] = molecular target: GlcNAc(b1-3)Gal(b1-4)GlcNAc(b1-2)Man(a1-3)[GlcNAc(b1-3)Gal(b1-4)GlcNAc(b1-2)Man(a1-6)]Man(b1-4)GlcNAc(b1-4)[Fuc(a1-6)]GlcNAc
# How it was run: as §1
# [10] = molecular target: GlcNAc(b1-3)Gal(b1-4)GlcNAc(b1-2)[GlcNAc(b1-3)Gal(b1-4)GlcNAc(b1-6)]Man(a1-6)[GlcNAc(b1-3)Gal(b1-4)GlcNAc(b1-2)Man(a1-3)]Man(b1-4)GlcNAc(b1-4)GlcNAc
# How it was run: as §1
# [11] = molecular target: GlcNAc(b1-3)Gal(b1-4)GlcNAc(b1-3)Gal(b1-4)GlcNAc
# How it was run: as §1
# [12] = molecular target: GlcNAc(b1-3)Gal(b1-4)GlcNAc(b1-3)Gal(b1-4)GlcNAc(b1-2)Man(a1-3)[GlcNAc(b1-3)Gal(b1-4)GlcNAc(b1-3)Gal(b1-4)GlcNAc(b1-2)Man(a1-6)]Man(b1-4)GlcNAc(b1-4)GlcNAc
# How it was run: as §1
# [13] = molecular target: GlcNAc(b1-3)Gal(b1-4)GlcNAc(b1-3)Gal(b1-4)GlcNAc(b1-2)Man(a1-3)[GlcNAc(b1-3)Gal(b1-4)GlcNAc(b1-3)Gal(b1-4)GlcNAc(b1-2)Man(a1-6)]Man(b1-4)GlcNAc(b1-4)[Fuc(a1-6)]GlcNAc
# How it was run: as §1
# [14] = molecular target: GlcNAc(b1-3)Gal(b1-4)GlcNAc(b1-3)Gal(b1-4)GlcNAc(b1-2)[GlcNAc(b1-3)Gal(b1-4)GlcNAc(b1-3)Gal(b1-4)GlcNAc(b1-6)]Man(a1-6)[GlcNAc(b1-3)Gal(b1-4)GlcNAc(b1-3)Gal(b1-4)GlcNAc(b1-2)Man(a1-3)]Man(b1-4)GlcNAc(b1-4)[Fuc(a1-6)]GlcNAc
# How it was run: as §1
# [15] = molecular target: GlcNAc(b1-3)Gal(b1-4)GlcNAc(b1-3)Gal(b1-4)GlcNAc(b1-3)Gal(b1-4)GlcNAc(b1-2)Man(a1-3)[GlcNAc(b1-3)Gal(b1-4)GlcNAc(b1-3)Gal(b1-4)GlcNAc(b1-3)Gal(b1-4)GlcNAc(b1-2)Man(a1-6)]Man(b1-4)GlcNAc(b1-4)GlcNAc
# How it was run: as §1
# [16] = molecular target: GlcNAc(b1-3)Gal(b1-4)GlcNAc(b1-3)Gal(b1-4)GlcNAc(b1-3)Gal(b1-4)GlcNAc(b1-2)Man(a1-3)[GlcNAc(b1-3)Gal(b1-4)GlcNAc(b1-3)Gal(b1-4)GlcNAc(b1-3)Gal(b1-4)GlcNAc(b1-2)Man(a1-6)]Man(b1-4)GlcNAc(b1-4)[Fuc(a1-6)]GlcNAc
# How it was run: as §1
# [17] = molecular target: GlcNAc(b1-3)Gal(b1-4)GlcNAc(b1-3)Gal(b1-4)GlcNAc(b1-3)Gal(b1-4)GlcNAc(b1-2)[GlcNAc(b1-3)Gal(b1-4)GlcNAc(b1-3)Gal(b1-4)GlcNAc(b1-3)Gal(b1-4)GlcNAc(b1-6)]Man(a1-6)[GlcNAc(b1-3)Gal(b1-4)GlcNAc(b1-3)Gal(b1-4)GlcNAc(b1-3)Gal(b1-4)GlcNAc(b1-2)Man(a1-3)]Man(b1-4)GlcNAc(b1-4)[Fuc(a1-6)]GlcNAc
# How it was run: as §1
# [18] = molecular target: GlcNAc(b1-3)Gal(b1-4)GlcNAc(b1-3)Gal(b1-4)GlcNAc(b1-3)Gal(b1-4)GlcNAc(b1-3)Gal(b1-4)GlcNAc(b1-2)Man(a1-3)[GlcNAc(b1-3)Gal(b1-4)GlcNAc(b1-3)Gal(b1-4)GlcNAc(b1-3)Gal(b1-4)GlcNAc(b1-3)Gal(b1-4)GlcNAc(b1-2)Man(a1-6)]Man(b1-4)GlcNAc(b1-4)GlcNAc
# How it was run: as §1
# [19] = molecular target: GlcNAc(b1-3)Gal(b1-4)GlcNAc(b1-3)Gal(b1-4)GlcNAc(b1-3)Gal(b1-4)GlcNAc(b1-3)Gal(b1-4)GlcNAc(b1-2)Man(a1-3)[GlcNAc(b1-3)Gal(b1-4)GlcNAc(b1-3)Gal(b1-4)GlcNAc(b1-3)Gal(b1-4)GlcNAc(b1-3)Gal(b1-4)GlcNAc(b1-2)Man(a1-6)]Man(b1-4)GlcNAc(b1-4)[Fuc(a1-6)]GlcNAc
# How it was run: as §1
# [20] = molecular target: GlcNAc(b1-3)Gal(b1-4)GlcNAc(b1-3)Gal(b1-4)GlcNAc(b1-3)Gal(b1-4)GlcNAc(b1-3)Gal(b1-4)GlcNAc(b1-2)[GlcNAc(b1-3)Gal(b1-4)GlcNAc(b1-3)Gal(b1-4)GlcNAc(b1-3)Gal(b1-4)GlcNAc(b1-3)Gal(b1-4)GlcNAc(b1-6)]Man(a1-6)[GlcNAc(b1-3)Gal(b1-4)GlcNAc(b1-3)Gal(b1-4)GlcNAc(b1-3)Gal(b1-4)GlcNAc(b1-3)Gal(b1-4)GlcNAc(b1-2)Man(a1-3)]Man(b1-4)GlcNAc(b1-4)[Fuc(a1-6)]GlcNAc
# How it was run: as §1
# [21] = molecular target: GlcNAc(b1-3)Gal(b1-4)GlcNAc(b1-3)Gal(b1-4)GlcNAc(b1-3)GalNAc
# How it was run: as §1
# [22] = molecular target: GlcNAc(b1-3)Gal(b1-4)GlcNAc(b1-3)GalNAc
# How it was run: as §1
# [23] = molecular target: GlcNAc(b1-3)Gal(b1-4)GlcNAc(b1-3)[GlcNAc(b1-3)Gal(b1-4)GlcNAc(b1-3)]GalNAc
# How it was run: as §1
# [24] = molecular target: GlcNAc(b1-3)Gal(b1-4)GlcNAc(b1-6)[Gal(b1-3)]GalNAc
# How it was run: as §1
# [25] = molecular target: GlcNAc(b1-3)Gal(b1-4)GlcNAc(b1-6)[GlcNAc(b1-3)Gal(b1-3)]GalNAc
# How it was run: as §1
# [26] = molecular target: GlcNAc(b1-3)Gal(b1-4)GlcNAc(b1-6)[GlcNAc(b1-3)]Gal(b1-4)GlcNAc
# How it was run: as §1
# GlcNAc(b1-3)GalNAc = molecular target: GlcNAc(b1-3)GalNAc
# How it was run: as §1
# GlcNAc(b1-3)Man = molecular target: GlcNAc(b1-3)Man
# How it was run: as §1
# [27] = molecular target: GlcNAc(b1-3)[GlcNAc(b1-4)][GlcNAc(b1-6)]GlcNAc
# How it was run: as §1
# [28] = molecular target: GlcNAc(b1-3)[GlcNAc(b1-6)]Gal(b1-4)GlcNAc
# How it was run: as §1
# [29] = molecular target: GlcNAc(b1-3)[GlcNAc(b1-6)]GalNAc
# How it was run: as §1
# [30] = molecular target: GlcNAc(b1-4)Gal(b1-4)GlcNAc
# How it was run: as §1
# GlcNAc(b1-4)GlcNAc = molecular target: GlcNAc(b1-4)GlcNAc
# How it was run: as §1
# [31] = molecular target: GlcNAc(b1-4)GlcNAc(b1-4)GlcNAc
# How it was run: as §1
# [32] = molecular target: GlcNAc(b1-4)GlcNAc(b1-4)GlcNAc(b1-4)GlcNAc(b1-4)GlcNAc
# How it was run: as §1
binder,measurement,setting,value
B1,glycan array binding signal (z-score),[1],-0.472
same,glycan array binding signal (z-score),[2],0.689
same,glycan array binding signal (z-score),[3],-0.413
same,glycan array binding signal (z-score),[4],1.03
same,glycan array binding signal (z-score),[5],-0.739
same,glycan array binding signal (z-score),GlcNAc(b1-3)Fuc,0.368
same,glycan array binding signal (z-score),GlcNAc(b1-3)Gal,-0.282
same,glycan array binding signal (z-score),[6],0.418
same,glycan array binding signal (z-score),GlcNAc(b1-3)Gal(b1-4)Glc,-0.236
same,glycan array binding signal (z-score),[7],-0.199
same,glycan array binding signal (z-score),[8],0.362
same,glycan array binding signal (z-score),[9],0.054
same,glycan array binding signal (z-score),[10],0.142
same,glycan array binding signal (z-score),[11],-1.04
same,glycan array binding signal (z-score),[12],0.824
same,glycan array binding signal (z-score),[13],-0.081
same,glycan array binding signal (z-score),[14],1.49
same,glycan array binding signal (z-score),[15],0.197
same,glycan array binding signal (z-score),[16],0.684
same,glycan array binding signal (z-score),[17],-0.381
same,glycan array binding signal (z-score),[18],-0.371
same,glycan array binding signal (z-score),[19],-0.517
same,glycan array binding signal (z-score),[20],-0.109
same,glycan array binding signal (z-score),[21],-0.4
same,glycan array binding signal (z-score),[22],-0.806
same,glycan array binding signal (z-score),[23],-0.354
same,glycan array binding signal (z-score),[24],0.88
same,glycan array binding signal (z-score),[25],-0.461
same,glycan array binding signal (z-score),[26],-0.445
same,glycan array binding signal (z-score),GlcNAc(b1-3)GalNAc,-0.602
same,glycan array binding signal (z-score),GlcNAc(b1-3)Man,-0.286
same,glycan array binding signal (z-score),[27],-0.204
same,glycan array binding signal (z-score),[28],-0.022
same,glycan array binding signal (z-score),[29],0.195
same,glycan array binding signal (z-score),[30],0.488
same,glycan array binding signal (z-score),GlcNAc(b1-4)GlcNAc,-0.37
same,glycan array binding signal (z-score),[31],-0.483
same,glycan array binding signal (z-score),[32],0.056

# A second format for some results above.
binder | measurement | setting | value
B1 | glycan array binding signal (z-score) | [17] | -0.381
same | glycan array binding signal (z-score) | [25] | -0.461
same | glycan array binding signal (z-score) | [31] | -0.483
